For at least one compound, name, drawing or mass did not settle the structure. Some entries repeat one wording, which the source may state once for all of them. *1 amine or outer side, *2 acyl side, *3 side chain or, on linkers, in order; H or OH if unused. Where a SMILES comes first, the peptide text is derived from it. Bridges are numbered along the chain shown (N, C = ends). The star is where a group is joined. C20 diacid = O=C(O)CCCCCCCCCCCCCCCCCCC(=O)*; C18 diacid = O=C(O)CCCCCCCCCCCCCCCCC(=O)*; γGlu = O=C(O)[C@H](CCC(=O)[*:2])N[*:1]; AEEA = NCCOCCOCC(=O)O
system: food intake; test: Pharmacological Assay (I) - efficacy testing on appetite, ad libitum fed rat model; assay type: in vivo, Sprague Dawley (SD) rats; settings: 30 nmol/kg vs vehicle, ad libitum fed rats, n=5-7, 0-48 hours
Text: Assays Pharmacological Assay (I)—Experimental Protocol for Efficacy Testing on Appetite with an Amylin Derivative, Using an Ad Libitum Fed Rat Model. Sprague Dawley (SD) rats from Taconic Europe, Denmark are used for the experiments. The rats have a body weight 200-250 g at the start of experiment. The rats arrive at least 10-14 days before start of experiment to allow acclimatization to experimental settings. During this period the animals are handled at least 2 times. After arrival rats are housed individually for one week in a reversed light/dark phase (meaning that lights are off during daytime and on during nighttime) for two weeks. Since rats are normally active and eat their major part of their daily food intake during the dark period, rats are dosed in the morning right before lights are turned off. This set-up results in the lowest data variation and highest test sensitivity. The experiment is conducted in the rats' home cages and rats have free access to food and water throughout the acclimatization period and the experiment period. Each dose of derivative is tested in a group of 5-8 rats. A vehicle group of 6-8 rats is included in each set of testing. Rats are dosed once according to body weight with a 0.01-3 mg/kg solution administered intraperitoneally (ip), orally (po) or subcutaneously (sc). The time of dosing is recorded for each group. After dosing, the rats are returned to their home cages, where they then have access to food and water. The food consumption is recorded individually continuously by on-line registration or manually every hour for 7 hours, and then after 24 h and sometimes 48 h. At the end of the experimental session, the animals are euthanized. The individual data are recorded in Microsoft excel sheets. Outliers are excluded after applying the Grubbs statistical evaluation test for outliers, and the result is presented graphically using the GraphPad Prism program.

Row | SMILES | food intake over a period of 48 hours
1 | CC[C@H](C)[C@H](NC(=O)[C@@H]1CCCN1C(=O)CNC(=O)[C@H](Cc1ccccc1)NC(=O)[C@H](CC(N)=O)NC(=O)[C@H](CC(N)=O)NC(=O)[C@H](CO)NC(=O)[C@H](CO)NC(=O)[C@H](Cc1c[nH]cn1)NC(=O)[C@H](CCCNC(=N)N)NC(=O)[C@H](CC(C)C)NC(=O)[C@H](Cc1ccccc1)NC(=O)[C@H](CC(N)=O)NC(=O)[C@H](C)NC(=O)[C@H](CC(C)C)NC(=O)[C@H](CCCNC(=N)N)NC(=O)[C@H](CCC(N)=O)NC(=O)[C@@H](NC(=O)[C@H](C)NC(=O)[C@@H]1CSSC[C@H](NC(=O)[C@H](CCCCN)NC(=O)[C@H](CCCNC(=N)N)NC(=O)CC[C@H](NC(=O)CCCCCCCCCCCCCCCCCCC(=O)O)C(=O)O)C(=O)N[C@@H](CC(N)=O)C(=O)N[C@@H]([C@@H](C)O)C(=O)N[C@@H](C)C(=O)N[C@@H]([C@@H](C)O)C(=O)N1)[C@@H](C)O)C(=O)N[C@@H](CC(C)C)C(=O)N1CCC[C@H]1C(=O)N1CCC[C@H]1C(=O)N[C@H](C(=O)N[C@@H](CC(N)=O)C(=O)N[C@H](C(=O)NCC(=O)N[C@@H](CO)C(=O)N[C@@H](CC(N)=O)C(=O)N[C@H](C(=O)N[C@@H](Cc1ccc(O)cc1)C(N)=O)[C@@H](C)O)C(C)C)[C@@H](C)O [Example 22, N-alpha-[(S)-4-Carboxy-4-(19-carboxynonadecanoylamino)butyryl]-Arg-[Arg17]-pramlintide] ({C20 diacid-γGlu}-RKCNTATCATQRLANFLRHSSNNFGPILPPTNVGSNTY-NH2; disulfide 3-8) | effectively reducing food intake
2 | CC[C@H](C)[C@H](NC(=O)[C@@H]1CCCN1C(=O)CNC(=O)[C@H](Cc1ccccc1)NC(=O)[C@H](CC(N)=O)NC(=O)[C@H](CC(N)=O)NC(=O)[C@H](CO)NC(=O)[C@H](CO)NC(=O)[C@H](Cc1c[nH]cn1)NC(=O)[C@H](C)NC(=O)[C@H](CC(C)C)NC(=O)[C@H](Cc1ccccc1)NC(=O)[C@H](CC(N)=O)NC(=O)[C@H](C)NC(=O)[C@H](CC(C)C)NC(=O)[C@H](CCCNC(=N)N)NC(=O)[C@H](CCC(N)=O)NC(=O)[C@@H](NC(=O)[C@H](C)NC(=O)[C@@H]1CSSC[C@H](NC(=O)[C@H](CCCCN)NC(=O)[C@H](CCCNC(=N)N)NC(=O)CC[C@H](NC(=O)CCCCCCCCCCCCCCCCCCC(=O)O)C(=O)O)C(=O)N[C@@H](CC(N)=O)C(=O)N[C@@H]([C@@H](C)O)C(=O)N[C@@H](C)C(=O)N[C@@H]([C@@H](C)O)C(=O)N1)[C@@H](C)O)C(=O)N[C@@H](CC(C)C)C(=O)N1CCC[C@H]1C(=O)N1CCC[C@H]1C(=O)N[C@H](C(=O)N[C@@H](CC(N)=O)C(=O)N[C@H](C(=O)NCC(=O)N[C@@H](CO)C(=O)N[C@@H](CC(N)=O)C(=O)N[C@H](C(=O)N[C@@H](Cc1ccc(O)cc1)C(N)=O)[C@@H](C)O)C(C)C)[C@@H](C)O [Example 19, N-alpha-[(S)-4-Carboxy-4-(19-carboxynonadecanoylamino)butyryl]-Arg-[Ala17]-pramlintide] ({C20 diacid-γGlu}-RKCNTATCATQRLANFLAHSSNNFGPILPPTNVGSNTY-NH2; disulfide 3-8) | effectively reducing food intake
3 | CC[C@H](C)[C@H](NC(=O)[C@@H]1CCCN1C(=O)CNC(=O)[C@H](Cc1ccccc1)NC(=O)[C@H](CC(N)=O)NC(=O)[C@H](CC(N)=O)NC(=O)[C@H](CO)NC(=O)[C@H](CO)NC(=O)[C@H](Cc1c[nH]cn1)NC(=O)[C@H](C)NC(=O)[C@H](CC(C)C)NC(=O)[C@H](Cc1ccccc1)NC(=O)[C@H](CC(N)=O)NC(=O)[C@H](C)NC(=O)[C@H](CC(C)C)NC(=O)[C@H](CCCNC(=N)N)NC(=O)[C@H](CCC(N)=O)NC(=O)[C@@H](NC(=O)[C@H](C)NC(=O)[C@@H]1CSSC[C@H](NC(=O)[C@H](CCCCN)NC(=O)[C@H](CCCNC(=N)N)NC(=O)COCCOCCNC(=O)CC[C@H](NC(=O)CCCCCCCCCCCCCCCCCCC(=O)O)C(=O)O)C(=O)N[C@@H](CC(N)=O)C(=O)N[C@@H]([C@@H](C)O)C(=O)N[C@@H](C)C(=O)N[C@@H]([C@@H](C)O)C(=O)N1)[C@@H](C)O)C(=O)N[C@@H](CC(C)C)C(=O)N1CCC[C@H]1C(=O)N1CCC[C@H]1C(=O)N[C@H](C(=O)N[C@@H](CC(N)=O)C(=O)N[C@H](C(=O)NCC(=O)N[C@@H](CO)C(=O)N[C@@H](CC(N)=O)C(=O)N[C@H](C(=O)N[C@@H](Cc1ccc(O)cc1)C(N)=O)[C@@H](C)O)C(C)C)[C@@H](C)O [Example 24, N-alpha-[2-(2-{2-[4-(S)-Carboxy-4-(19-carboxynonadecanoylamino)butyrylamino]ethoxy}ethoxy)acetyl]-Arg-[Ala17]-pramlintide] ({C20 diacid-γGlu-AEEA}-RKCNTATCATQRLANFLAHSSNNFGPILPPTNVGSNTY-NH2; disulfide 3-8) | effectively reducing food intake
4 | CC[C@H](C)[C@H](NC(=O)[C@@H]1CCCN1C(=O)CNC(=O)[C@H](Cc1ccccc1)NC(=O)[C@H](CC(N)=O)NC(=O)[C@H](CC(N)=O)NC(=O)[C@H](CO)NC(=O)[C@H](CO)NC(=O)[C@H](Cc1c[nH]cn1)NC(=O)[C@H](Cc1c[nH]cn1)NC(=O)[C@H](CC(C)C)NC(=O)[C@H](Cc1ccccc1)NC(=O)[C@H](CC(N)=O)NC(=O)[C@H](C)NC(=O)[C@H](CC(C)C)NC(=O)[C@H](CCCNC(=N)N)NC(=O)[C@H](CCC(N)=O)NC(=O)[C@@H](NC(=O)[C@H](C)NC(=O)[C@@H]1CSSC[C@H](NC(=O)CC[C@H](NC(=O)CCCCCCCCCCCCCCCCC(=O)O)C(=O)O)C(=O)N[C@@H](CC(N)=O)C(=O)N[C@@H]([C@@H](C)O)C(=O)N[C@@H](C)C(=O)N[C@@H]([C@@H](C)O)C(=O)N1)[C@@H](C)O)C(=O)N[C@@H](CC(C)C)C(=O)N1CCC[C@H]1C(=O)N1CCC[C@H]1C(=O)N[C@H](C(=O)N[C@@H](CC(N)=O)C(=O)N[C@H](C(=O)NCC(=O)N[C@@H](CO)C(=O)N[C@@H](CC(N)=O)C(=O)N[C@H](C(=O)N[C@@H](Cc1ccc(O)cc1)C(N)=O)[C@@H](C)O)C(C)C)[C@@H](C)O [Example 10, N-alpha-[(S)-4-Carboxy-4-(17-carboxyheptadecanoylamino)butyryl]-[His17]-pramlintide (2-37)] ({C18 diacid-γGlu}-CNTATCATQRLANFLHHSSNNFGPILPPTNVGSNTY-NH2; disulfide 1-6) | effectively reducing food intake

Source: patent US8895504B2, “Amylin derivatives” (priority 2008, dated 2014)
